Data from publication PMC5133637.
These are yes or no findings as the source states them, for the method shown. In cells and extracts the contact can be indirect. Some binding calls cover weakened binding; strength is not graded here. For some assays here: Where a sequence is shown, tags or fusion partners need not be part of it. One block for each molecule: values may come before it.

Amino acid sequences for entries named in this document (tags omitted).
UniProt P48432: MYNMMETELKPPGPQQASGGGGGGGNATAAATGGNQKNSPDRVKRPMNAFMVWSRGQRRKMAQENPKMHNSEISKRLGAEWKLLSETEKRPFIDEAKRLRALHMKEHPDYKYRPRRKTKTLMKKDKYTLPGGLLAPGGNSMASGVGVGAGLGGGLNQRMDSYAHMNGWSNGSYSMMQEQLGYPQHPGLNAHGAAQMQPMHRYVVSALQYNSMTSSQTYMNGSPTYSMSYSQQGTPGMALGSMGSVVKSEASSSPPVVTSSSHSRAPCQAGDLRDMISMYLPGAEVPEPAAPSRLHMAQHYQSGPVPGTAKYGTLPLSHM

What was measured:
[1] = molecular target: T1, endogenous USP21 (mouse (endogenous in E14)) (UniProt Q9QZL6); assay: co-IP; endogenous proteins from E14 mESC lysate; IP with anti-Nanog or anti-USP21 (Abgent) antibody; western blot; in one panel cells treated with mFGF4 (25 ng/ml) with or without PD0325901 (1 uM) for 12 h
T1 sequence: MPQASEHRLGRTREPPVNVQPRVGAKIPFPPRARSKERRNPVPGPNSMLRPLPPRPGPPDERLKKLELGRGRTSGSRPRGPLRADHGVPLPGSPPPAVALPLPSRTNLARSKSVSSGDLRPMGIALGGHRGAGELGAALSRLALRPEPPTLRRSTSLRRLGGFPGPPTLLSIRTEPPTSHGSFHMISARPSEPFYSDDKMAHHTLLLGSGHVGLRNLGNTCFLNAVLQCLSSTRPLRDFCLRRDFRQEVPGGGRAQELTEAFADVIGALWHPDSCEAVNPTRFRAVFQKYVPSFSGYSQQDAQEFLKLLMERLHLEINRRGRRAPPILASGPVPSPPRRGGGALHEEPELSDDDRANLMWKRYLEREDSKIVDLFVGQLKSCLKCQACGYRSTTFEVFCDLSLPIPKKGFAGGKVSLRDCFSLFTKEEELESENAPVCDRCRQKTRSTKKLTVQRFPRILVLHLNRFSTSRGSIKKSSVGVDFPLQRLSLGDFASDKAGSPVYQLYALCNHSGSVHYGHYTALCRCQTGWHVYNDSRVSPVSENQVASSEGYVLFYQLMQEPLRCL

[2] = molecular target: T2, Flag-USP21-LV (mouse) (UniProt Q9QZL6); assay: co-IP; transfected HEK293T cells; lysis in 50 mM Tris-Cl pH 7.4, 0.5% NP-40, 150 mM NaCl, 1 mM EDTA; HA-conjugated beads or M2 (anti-Flag) beads 2-3 h; western blot; in some panels cells treated with EGF with or without SCH772984, or co-expressing MEK1^CA and ERK1
T2 sequence: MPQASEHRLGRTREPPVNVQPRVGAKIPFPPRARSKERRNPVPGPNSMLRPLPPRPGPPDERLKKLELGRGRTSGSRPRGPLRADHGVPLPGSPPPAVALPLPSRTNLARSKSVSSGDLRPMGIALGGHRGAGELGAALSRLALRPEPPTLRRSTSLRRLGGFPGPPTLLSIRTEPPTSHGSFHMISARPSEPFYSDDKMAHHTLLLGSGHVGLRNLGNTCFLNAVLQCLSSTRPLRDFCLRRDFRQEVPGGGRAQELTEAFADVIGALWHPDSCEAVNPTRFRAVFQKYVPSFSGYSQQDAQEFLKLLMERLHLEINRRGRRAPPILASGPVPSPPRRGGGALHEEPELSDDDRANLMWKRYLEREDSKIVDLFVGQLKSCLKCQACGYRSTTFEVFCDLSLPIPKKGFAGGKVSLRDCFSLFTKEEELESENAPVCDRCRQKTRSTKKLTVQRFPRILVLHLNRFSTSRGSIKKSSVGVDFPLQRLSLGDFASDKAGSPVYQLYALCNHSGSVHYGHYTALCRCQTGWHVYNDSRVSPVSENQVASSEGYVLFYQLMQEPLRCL

[3] = molecular target: T3, USP2 (UniProt O88623); assay: as above
T3 sequence: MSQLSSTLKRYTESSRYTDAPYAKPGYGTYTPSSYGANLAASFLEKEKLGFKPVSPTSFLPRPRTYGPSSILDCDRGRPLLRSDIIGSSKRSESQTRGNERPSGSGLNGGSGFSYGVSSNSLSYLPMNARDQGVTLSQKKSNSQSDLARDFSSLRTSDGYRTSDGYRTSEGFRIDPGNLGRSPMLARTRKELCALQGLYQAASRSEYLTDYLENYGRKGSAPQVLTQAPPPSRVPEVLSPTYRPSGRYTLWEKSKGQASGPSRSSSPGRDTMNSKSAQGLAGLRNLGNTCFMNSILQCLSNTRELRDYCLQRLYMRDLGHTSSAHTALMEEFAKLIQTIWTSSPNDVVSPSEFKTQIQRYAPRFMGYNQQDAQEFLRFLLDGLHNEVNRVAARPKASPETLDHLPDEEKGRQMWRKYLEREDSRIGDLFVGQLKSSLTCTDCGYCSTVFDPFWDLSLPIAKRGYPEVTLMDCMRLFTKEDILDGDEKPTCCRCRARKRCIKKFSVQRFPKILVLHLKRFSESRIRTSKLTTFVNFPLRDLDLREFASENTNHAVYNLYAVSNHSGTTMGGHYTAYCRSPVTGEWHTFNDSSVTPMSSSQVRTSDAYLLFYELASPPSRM

[4] = molecular target: T4, HA-Nanog (mouse) (UniProt Q80Z64); assay: as above
T4 sequence: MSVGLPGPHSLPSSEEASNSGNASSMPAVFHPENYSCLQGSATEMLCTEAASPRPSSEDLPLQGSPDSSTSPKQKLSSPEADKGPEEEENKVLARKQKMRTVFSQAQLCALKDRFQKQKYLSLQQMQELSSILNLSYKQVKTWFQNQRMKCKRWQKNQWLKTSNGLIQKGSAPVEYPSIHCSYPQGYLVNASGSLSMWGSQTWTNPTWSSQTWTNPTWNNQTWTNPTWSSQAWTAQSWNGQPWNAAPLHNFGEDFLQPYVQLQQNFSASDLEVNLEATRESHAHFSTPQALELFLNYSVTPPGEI

[5] = molecular target: T5, endogenous Nanog (mouse (endogenous in E14)) (UniProt Q80Z64); assay: co-IP; endogenous proteins from E14 mESC lysate; IP with anti-Nanog or anti-USP21 (Abgent) antibody; western blot; in one panel cells treated with mFGF4 (25 ng/ml) with or without PD0325901 (1 uM) for 12 h
T5 sequence: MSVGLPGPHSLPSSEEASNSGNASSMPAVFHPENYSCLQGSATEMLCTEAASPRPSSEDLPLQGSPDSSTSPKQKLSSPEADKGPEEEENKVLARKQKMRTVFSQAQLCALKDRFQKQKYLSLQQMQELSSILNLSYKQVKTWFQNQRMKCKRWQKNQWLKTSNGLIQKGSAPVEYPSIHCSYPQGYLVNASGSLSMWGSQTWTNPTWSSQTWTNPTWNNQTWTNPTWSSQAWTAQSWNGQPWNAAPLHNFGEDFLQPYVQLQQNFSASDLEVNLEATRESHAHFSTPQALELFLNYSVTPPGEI

- binding [1]: no binding
Molecule: endogenous Sox2 (from UniProt P48432 1-319)

- binding [2]: binds
- binding [3]: binds weakly
B1: HA-Nanog (protein, UniProt Q80Z64 1-305)
chain: MSVGLPGPHSLPSSEEASNSGNASSMPAVFHPENYSCLQGSATEMLCTEAASPRPSSEDLPLQGSPDSSTSPKQKLSSPEADKGPEEEENKVLARKQKMRTVFSQAQLCALKDRFQKQKYLSLQQMQELSSILNLSYKQVKTWFQNQRMKCKRWQKNQWLKTSNGLIQKGSAPVEYPSIHCSYPQGYLVNASGSLSMWGSQTWTNPTWSSQTWTNPTWNNQTWTNPTWSSQAWTAQSWNGQPWNAAPLHNFGEDFLQPYVQLQQNFSASDLEVNLEATRESHAHFSTPQALELFLNYSVTPPGEI

- binding [4]: binds
B2: Flag-USP21-LV (enzyme, UniProt Q9QZL6 1-566)
chain: MPQASEHRLGRTREPPVNVQPRVGAKIPFPPRARSKERRNPVPGPNSMLRPLPPRPGPPDERLKKLELGRGRTSGSRPRGPLRADHGVPLPGSPPPAVALPLPSRTNLARSKSVSSGDLRPMGIALGGHRGAGELGAALSRLALRPEPPTLRRSTSLRRLGGFPGPPTLLSIRTEPPTSHGSFHMISARPSEPFYSDDKMAHHTLLLGSGHVGLRNLGNTCFLNAVLQCLSSTRPLRDFCLRRDFRQEVPGGGRAQELTEAFADVIGALWHPDSCEAVNPTRFRAVFQKYVPSFSGYSQQDAQEFLKLLMERLHLEINRRGRRAPPILASGPVPSPPRRGGGALHEEPELSDDDRANLMWKRYLEREDSKIVDLFVGQLKSCLKCQACGYRSTTFEVFCDLSLPIPKKGFAGGKVSLRDCFSLFTKEEELESENAPVCDRCRQKTRSTKKLTVQRFPRILVLHLNRFSTSRGSIKKSSVGVDFPLQRLSLGDFASDKAGSPVYQLYALCNHSGSVHYGHYTALCRCQTGWHVYNDSRVSPVSENQVASSEGYVLFYQLMQEPLRCL

- binding [5]: binds
B3: endogenous USP21 (enzyme, UniProt Q9QZL6 1-566)
chain: MPQASEHRLGRTREPPVNVQPRVGAKIPFPPRARSKERRNPVPGPNSMLRPLPPRPGPPDERLKKLELGRGRTSGSRPRGPLRADHGVPLPGSPPPAVALPLPSRTNLARSKSVSSGDLRPMGIALGGHRGAGELGAALSRLALRPEPPTLRRSTSLRRLGGFPGPPTLLSIRTEPPTSHGSFHMISARPSEPFYSDDKMAHHTLLLGSGHVGLRNLGNTCFLNAVLQCLSSTRPLRDFCLRRDFRQEVPGGGRAQELTEAFADVIGALWHPDSCEAVNPTRFRAVFQKYVPSFSGYSQQDAQEFLKLLMERLHLEINRRGRRAPPILASGPVPSPPRRGGGALHEEPELSDDDRANLMWKRYLEREDSKIVDLFVGQLKSCLKCQACGYRSTTFEVFCDLSLPIPKKGFAGGKVSLRDCFSLFTKEEELESENAPVCDRCRQKTRSTKKLTVQRFPRILVLHLNRFSTSRGSIKKSSVGVDFPLQRLSLGDFASDKAGSPVYQLYALCNHSGSVHYGHYTALCRCQTGWHVYNDSRVSPVSENQVASSEGYVLFYQLMQEPLRCL
